Source: publication PMC4956306
No constants are given. Whether binding was seen depends on the method and setting. In cells and extracts the contact can be indirect. Some results given as binding are weak or reduced against the parent protein; the word gives no strength.

Chains of the proteins cited; added tags and fusions are not shown.
UniProt O43237: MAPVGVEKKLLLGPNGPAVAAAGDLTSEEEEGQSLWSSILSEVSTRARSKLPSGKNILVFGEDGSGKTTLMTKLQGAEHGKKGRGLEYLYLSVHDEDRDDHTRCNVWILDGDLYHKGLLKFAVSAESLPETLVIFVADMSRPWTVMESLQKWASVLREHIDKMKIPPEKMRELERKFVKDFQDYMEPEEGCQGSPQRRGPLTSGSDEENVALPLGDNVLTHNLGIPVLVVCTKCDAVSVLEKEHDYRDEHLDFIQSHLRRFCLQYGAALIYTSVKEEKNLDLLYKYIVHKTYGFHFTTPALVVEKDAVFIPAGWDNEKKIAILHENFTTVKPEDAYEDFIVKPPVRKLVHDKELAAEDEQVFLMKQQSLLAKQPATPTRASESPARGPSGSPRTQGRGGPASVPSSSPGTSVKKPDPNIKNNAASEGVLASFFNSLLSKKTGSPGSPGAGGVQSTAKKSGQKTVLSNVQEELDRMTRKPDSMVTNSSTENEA
UniProt O60566: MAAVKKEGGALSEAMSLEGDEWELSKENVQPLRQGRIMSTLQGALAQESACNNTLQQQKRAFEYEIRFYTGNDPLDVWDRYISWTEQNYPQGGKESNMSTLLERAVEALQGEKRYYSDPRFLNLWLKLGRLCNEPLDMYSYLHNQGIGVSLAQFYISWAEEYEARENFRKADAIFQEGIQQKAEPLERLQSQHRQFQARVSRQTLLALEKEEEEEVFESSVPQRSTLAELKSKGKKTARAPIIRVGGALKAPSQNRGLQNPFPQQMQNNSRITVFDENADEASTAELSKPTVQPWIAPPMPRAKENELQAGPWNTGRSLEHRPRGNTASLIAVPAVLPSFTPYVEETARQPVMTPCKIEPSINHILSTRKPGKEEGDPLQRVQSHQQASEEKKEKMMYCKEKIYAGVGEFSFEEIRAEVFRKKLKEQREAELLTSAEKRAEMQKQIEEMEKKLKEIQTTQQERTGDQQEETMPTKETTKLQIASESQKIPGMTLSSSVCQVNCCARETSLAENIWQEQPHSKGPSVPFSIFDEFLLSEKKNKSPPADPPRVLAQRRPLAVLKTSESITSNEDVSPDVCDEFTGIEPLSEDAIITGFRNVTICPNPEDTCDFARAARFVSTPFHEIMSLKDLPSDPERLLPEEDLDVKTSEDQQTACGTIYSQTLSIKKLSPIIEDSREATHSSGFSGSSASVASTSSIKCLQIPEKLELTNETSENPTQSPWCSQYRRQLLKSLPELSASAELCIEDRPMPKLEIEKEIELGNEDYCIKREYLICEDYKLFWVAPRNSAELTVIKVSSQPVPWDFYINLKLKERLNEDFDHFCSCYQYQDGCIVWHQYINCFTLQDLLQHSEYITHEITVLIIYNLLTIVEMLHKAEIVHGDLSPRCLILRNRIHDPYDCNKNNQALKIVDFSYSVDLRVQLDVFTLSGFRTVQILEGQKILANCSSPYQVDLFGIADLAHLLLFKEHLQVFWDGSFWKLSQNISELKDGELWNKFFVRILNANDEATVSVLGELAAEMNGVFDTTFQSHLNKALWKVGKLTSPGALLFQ

B1: Mad1 (protein, UniProt Q9Y6D9 1-718)
chain: MEDLGENTMVLSTLRSLNNFISQRVEGGSGLDISTSAPGSLQMQYQQSMQLEERAEQIRSKSHLIQVEREKMQMELSHKRARVELERAASTSARNYEREVDRNQELLTRIRQLQEREAGAEEKMQEQLERNRQCQQNLDAASKRLREKEDSLAQAGETINALKGRISELQWSVMDQEMRVKRLESEKQELQEQLDLQHKKCQEANQKIQELQASQEARADHEQQIKDLEQKLSLQEQDAAIVKNMKSELVRLPRLERELKQLREESAHLREMRETNGLLQEELEGLQRKLGRQEKMQETLVGLELENERLLAKLQSWERLDQTMGLSIRTPEDLSRFVVELQQRELALKDKNSAVTSSARGLEKARQQLQEELRQVSGQLLEERKKRETHEALARRLQKRVLLLTKERDGMRAILGSYDSELTPAEYSPQLTRRMREAEDMVQKVHSHSAEMEAQLSQALEELGGQKQRADMLEMELKMLKSQSSSAEQSFLFSREEADTLRLKVEELEGERSRLEEEKRMLEAQLERRALQGDYDQSRTKVLHMSLNPTSVARQRLREDHSQLQAECERLRGLLRAMERGGTVPADLEAAAASLPSSKEVAELKKQVESAELKNQRLKEVFQTKIQEFRKACYTLTGYQIDITTENQYRLTSLYAEHPGDCLIFKATSPSGSKMQLLETEFSHTVGELIEVHLRRQDSIPAFLSSLTLELFSRQTVA
B2: Zw10 (protein, UniProt O43264 1-779)
chain: MASFVTEVLAHSGRLEKEDLGTRISRLTRRVEEIKGEVCNMISKKYSEFLPSMQSAQGLITQVDKLSEDIDLLKSRIESEVRRDLHVSTGEFTDLKQQLERDSVVLSLLKQLQEFSTAIEEYNCALTEKKYVTGAQRLEEAQKCLKLLKSRKCFDLKILKSLSMELTIQKQNILYHLGEEWQKLIVWKFPPSKDTSSLESYLQTELHLYTEQSHKEEKTPMPPISSVLLAFSVLGELHSKLKSFGQMLLKYILRPLASCPSLHAVIESQPNIVIIRFESIMTNLEYPSPSEVFTKIRLVLEVLQKQLLDLPLDTDLENEKTSTVPLAEMLGDMIWEDLSECLIKNCLVYSIPTNSSKLQQYEEIIQSTEEFENALKEMRFLKGDTTDLLKYARNINSHFANKKCQDVIVAARNLMTSEIHNTVKIIPDSKINVPELPTPDEDNKLEVQKVSNTQYHEVMNLEPENTLDQHSFSLPTCRISESVKKLMELAYQTLLEATTSSDQCAVQLFYSVRNIFHLFHDVVPTYHKENLQKLPQLAAIHHNNCMYIAHHLLTLGHQFRLRLAPILCDGTATFVDLVPGFRRLGTECFLAQMRAQKGELLERLSSARNFSNMDDEENYSAASKAVRQVLHQLKRLGIVWQDVLPVNIYCKAMGTLLNTAISEVIGKITALEDISTEDGDRLYSLCKTVMDEGPQVFAPLSEESKNKKYQEEVPVYVPKWMPFKELMMMLQASLQEIGDRWADGKGPLAAAFSSSEVKALIRALFQNTERRAAALAKIK

The molecules below were run against human LIC2-MTAP-MVenus (dynein Light Intermediate Chain 2 fused to a multifunctional C-terminal affinity purification tag) (human) (UniProt O43237) (assay: pull-down; LIC2-MTAP captured by its SBP tag on a Streptactin-HP column from mitotic cryo-lysates of the stable U2OS line (nocodazole 400 nM, released 1 h); lysis 50 mM Tris pH 7.5, 125 mM NaCl, 1 mM EGTA, 0.2 NP-40, 5% glycerol; wash 250 mM NaCl, 0.2% NP-40; elution with 2.5 mM D-biotin; immunoblotting; empty MTAP vector line as control).

binding, binds:
BubR1 (from UniProt O60566 1-1050), B1, B2
